Source: article PMC10492306
No constants are given. Whether binding was seen depends on the method and setting. In cells and extracts the contact can be indirect. Some binding calls cover weakened binding; strength is not graded here.

Sequences of proteins named here, by UniProt entry; tags and fusion partners are left off.
UniProt P84022: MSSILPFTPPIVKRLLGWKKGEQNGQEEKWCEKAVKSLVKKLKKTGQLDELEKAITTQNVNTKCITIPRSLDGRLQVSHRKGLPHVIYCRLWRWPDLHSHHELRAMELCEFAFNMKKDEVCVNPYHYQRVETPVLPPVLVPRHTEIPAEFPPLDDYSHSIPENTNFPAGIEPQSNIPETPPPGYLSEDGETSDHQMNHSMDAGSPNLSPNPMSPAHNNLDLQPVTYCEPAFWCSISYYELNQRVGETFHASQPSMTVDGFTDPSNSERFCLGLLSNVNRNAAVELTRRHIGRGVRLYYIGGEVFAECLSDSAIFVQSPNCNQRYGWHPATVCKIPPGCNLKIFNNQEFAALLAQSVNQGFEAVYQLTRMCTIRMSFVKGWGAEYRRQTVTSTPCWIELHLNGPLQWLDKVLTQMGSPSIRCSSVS
UniProt O95782: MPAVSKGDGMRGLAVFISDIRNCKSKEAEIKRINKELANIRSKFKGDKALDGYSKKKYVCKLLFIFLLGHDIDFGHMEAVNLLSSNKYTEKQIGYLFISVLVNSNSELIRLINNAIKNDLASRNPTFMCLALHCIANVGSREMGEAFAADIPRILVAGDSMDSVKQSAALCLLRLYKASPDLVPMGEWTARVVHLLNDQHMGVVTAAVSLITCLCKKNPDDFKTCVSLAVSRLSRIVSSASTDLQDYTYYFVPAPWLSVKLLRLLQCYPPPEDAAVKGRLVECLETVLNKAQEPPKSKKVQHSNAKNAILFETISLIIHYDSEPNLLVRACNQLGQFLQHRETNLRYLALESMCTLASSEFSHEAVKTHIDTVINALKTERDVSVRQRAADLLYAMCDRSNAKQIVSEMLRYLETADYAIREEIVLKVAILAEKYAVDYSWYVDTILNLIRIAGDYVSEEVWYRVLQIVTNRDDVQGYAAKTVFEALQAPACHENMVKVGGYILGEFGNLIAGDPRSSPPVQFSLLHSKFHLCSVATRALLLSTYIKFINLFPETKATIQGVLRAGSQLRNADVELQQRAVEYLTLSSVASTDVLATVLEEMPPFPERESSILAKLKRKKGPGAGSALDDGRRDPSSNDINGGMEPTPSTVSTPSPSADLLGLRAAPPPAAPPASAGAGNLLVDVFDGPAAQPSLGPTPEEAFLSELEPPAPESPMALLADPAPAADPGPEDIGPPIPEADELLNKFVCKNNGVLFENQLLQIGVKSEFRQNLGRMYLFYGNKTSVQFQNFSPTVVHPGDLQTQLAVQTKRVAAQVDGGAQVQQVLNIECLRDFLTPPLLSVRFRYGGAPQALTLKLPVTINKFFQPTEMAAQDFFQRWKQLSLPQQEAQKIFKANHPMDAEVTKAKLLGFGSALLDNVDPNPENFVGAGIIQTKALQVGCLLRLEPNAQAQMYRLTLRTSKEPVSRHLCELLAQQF

Key:
[1] = target: SMAD3 (human (endogenous in PANC-1 and BxPC-3)) (UniProt P84022); assay: co-IP; reciprocal: AP2A1 immunoprecipitates and SMAD3 immunoprecipitates from lysates of PANC-1 and BxPC-3 cells, western blot; 5 ng/ml TGF-β, 15 min; sh-ctrl or circEIF3I knockdown
[2] = target: AP2A1 (human (endogenous in PANC-1 and BxPC-3)) (UniProt O95782); assay: as above

Substance | binding [1] | binding [2]
AP2A1 (from UniProt O95782 1-977) | binds | –
SMAD3 (from UniProt P84022 1-425) | – | binds
